Measurements reported in paper PMC7615239.
Results are given in words; binding and its absence hold for the method and conditions named. In cells and extracts the contact can be indirect. Some entries that bind do so weakly or less than the wild type. Sequences can lack the tags named with a protein.

Sequences of proteins named here, by UniProt entry; tags and fusion partners are left off.
UniProt Q9FIE3: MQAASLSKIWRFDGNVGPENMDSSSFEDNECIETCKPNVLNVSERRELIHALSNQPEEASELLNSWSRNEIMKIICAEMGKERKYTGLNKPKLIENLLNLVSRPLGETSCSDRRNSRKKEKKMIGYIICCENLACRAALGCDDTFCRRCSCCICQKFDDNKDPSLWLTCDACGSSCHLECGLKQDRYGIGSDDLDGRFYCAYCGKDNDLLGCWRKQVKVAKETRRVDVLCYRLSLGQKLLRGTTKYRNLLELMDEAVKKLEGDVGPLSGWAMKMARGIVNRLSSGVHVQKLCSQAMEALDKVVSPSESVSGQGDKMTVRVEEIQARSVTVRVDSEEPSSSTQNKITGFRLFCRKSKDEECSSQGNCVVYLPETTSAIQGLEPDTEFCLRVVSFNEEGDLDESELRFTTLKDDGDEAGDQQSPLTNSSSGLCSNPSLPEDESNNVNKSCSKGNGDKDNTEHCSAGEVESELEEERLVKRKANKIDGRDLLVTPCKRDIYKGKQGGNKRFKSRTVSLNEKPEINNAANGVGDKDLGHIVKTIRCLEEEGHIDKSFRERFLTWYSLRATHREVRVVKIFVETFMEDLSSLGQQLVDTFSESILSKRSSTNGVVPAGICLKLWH

T1: GFP-VRN5 (Arabidopsis thaliana) (UniProt Q9LHF5)
T1 sequence: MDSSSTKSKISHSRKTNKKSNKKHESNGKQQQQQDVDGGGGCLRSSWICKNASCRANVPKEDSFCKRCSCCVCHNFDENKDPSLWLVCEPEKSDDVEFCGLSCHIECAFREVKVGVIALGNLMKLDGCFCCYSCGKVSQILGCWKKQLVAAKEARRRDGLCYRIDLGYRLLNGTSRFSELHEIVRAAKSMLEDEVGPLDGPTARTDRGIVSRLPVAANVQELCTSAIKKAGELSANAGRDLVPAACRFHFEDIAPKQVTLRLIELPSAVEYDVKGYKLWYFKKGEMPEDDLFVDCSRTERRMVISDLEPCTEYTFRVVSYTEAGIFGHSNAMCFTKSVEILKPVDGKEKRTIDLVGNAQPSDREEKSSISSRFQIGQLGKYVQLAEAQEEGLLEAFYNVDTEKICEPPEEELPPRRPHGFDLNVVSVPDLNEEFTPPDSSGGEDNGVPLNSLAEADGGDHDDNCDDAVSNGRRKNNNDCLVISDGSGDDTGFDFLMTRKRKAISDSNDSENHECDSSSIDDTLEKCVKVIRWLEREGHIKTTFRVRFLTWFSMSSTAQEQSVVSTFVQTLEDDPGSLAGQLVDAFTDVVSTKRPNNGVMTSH

T2: GFP-VEL1 (Arabidopsis thaliana) (UniProt Q9SUM4)
T2 sequence: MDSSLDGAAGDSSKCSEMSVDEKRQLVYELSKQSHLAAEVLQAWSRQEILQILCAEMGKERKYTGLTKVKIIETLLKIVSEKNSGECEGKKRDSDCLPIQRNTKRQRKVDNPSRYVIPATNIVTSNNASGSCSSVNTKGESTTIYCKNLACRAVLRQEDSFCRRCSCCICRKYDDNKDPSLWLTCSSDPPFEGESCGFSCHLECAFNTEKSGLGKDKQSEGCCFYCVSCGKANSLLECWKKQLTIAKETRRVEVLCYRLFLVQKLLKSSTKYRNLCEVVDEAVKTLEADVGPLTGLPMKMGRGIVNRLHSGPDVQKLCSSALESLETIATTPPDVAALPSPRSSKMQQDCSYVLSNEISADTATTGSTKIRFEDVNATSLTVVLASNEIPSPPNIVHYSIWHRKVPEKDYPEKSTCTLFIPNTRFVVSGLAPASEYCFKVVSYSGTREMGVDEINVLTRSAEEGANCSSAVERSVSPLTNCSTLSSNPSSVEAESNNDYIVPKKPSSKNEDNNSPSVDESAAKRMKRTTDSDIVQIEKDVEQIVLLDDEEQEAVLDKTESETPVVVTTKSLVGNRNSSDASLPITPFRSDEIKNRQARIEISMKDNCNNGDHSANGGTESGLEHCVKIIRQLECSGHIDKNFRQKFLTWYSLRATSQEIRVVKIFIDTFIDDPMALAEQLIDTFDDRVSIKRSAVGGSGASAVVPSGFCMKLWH

T3: GFP-tagged VRN2 (Arabidopsis) (UniProt Q8W5B1)
T3 sequence: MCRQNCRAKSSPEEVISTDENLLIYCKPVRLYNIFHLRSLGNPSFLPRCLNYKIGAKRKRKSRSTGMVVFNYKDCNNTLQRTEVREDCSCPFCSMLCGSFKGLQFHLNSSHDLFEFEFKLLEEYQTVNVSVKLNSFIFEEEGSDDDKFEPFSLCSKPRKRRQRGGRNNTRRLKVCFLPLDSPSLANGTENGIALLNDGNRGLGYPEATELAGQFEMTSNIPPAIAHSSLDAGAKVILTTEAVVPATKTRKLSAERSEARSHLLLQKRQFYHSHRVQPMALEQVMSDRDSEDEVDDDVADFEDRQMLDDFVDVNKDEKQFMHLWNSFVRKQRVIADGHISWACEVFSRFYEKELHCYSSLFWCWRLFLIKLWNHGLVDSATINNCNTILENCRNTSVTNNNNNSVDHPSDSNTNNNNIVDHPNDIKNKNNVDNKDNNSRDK

T4: GFP-VAL1 (Arabidopsis) (UniProt Q8W4L5)
T4 sequence: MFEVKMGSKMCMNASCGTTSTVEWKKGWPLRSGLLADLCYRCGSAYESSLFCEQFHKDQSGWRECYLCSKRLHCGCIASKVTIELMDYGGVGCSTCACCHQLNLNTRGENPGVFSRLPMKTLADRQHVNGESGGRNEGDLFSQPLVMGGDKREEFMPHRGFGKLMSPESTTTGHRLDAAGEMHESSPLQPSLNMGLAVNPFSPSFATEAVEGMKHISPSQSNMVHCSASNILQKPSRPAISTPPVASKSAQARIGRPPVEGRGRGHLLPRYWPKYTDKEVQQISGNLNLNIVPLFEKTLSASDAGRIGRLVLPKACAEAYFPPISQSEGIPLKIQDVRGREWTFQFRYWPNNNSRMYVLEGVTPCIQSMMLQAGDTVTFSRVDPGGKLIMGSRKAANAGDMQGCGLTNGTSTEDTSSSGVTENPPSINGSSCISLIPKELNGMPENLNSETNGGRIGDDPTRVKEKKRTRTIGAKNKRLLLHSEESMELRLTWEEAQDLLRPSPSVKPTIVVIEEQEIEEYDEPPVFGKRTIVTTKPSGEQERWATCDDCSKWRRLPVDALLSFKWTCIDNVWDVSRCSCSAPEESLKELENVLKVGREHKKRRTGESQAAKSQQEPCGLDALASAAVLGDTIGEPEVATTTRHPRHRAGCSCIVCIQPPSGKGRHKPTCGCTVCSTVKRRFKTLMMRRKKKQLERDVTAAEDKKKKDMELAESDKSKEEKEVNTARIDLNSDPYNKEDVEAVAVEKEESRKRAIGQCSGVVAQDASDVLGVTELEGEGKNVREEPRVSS

B1: HA-tagged VRN2 (protein, UniProt Q8W5B1 1-440)
chain: T3 sequence
B2: HA-tagged FIE (protein, UniProt Q9LT47 1-369)
chain: MSKITLGNESIVGSLTPSNKKSYKVTNRIQEGKKPLYAVVFNFLDARFFDVFVTAGGNRITLYNCLGDGAISALQSYADEDKEESFYTVSWACGVNGNPYVAAGGVKGIIRVIDVNSETIHKSLVGHGDSVNEIRTQPLKPQLVITASKDESVRLWNVETGICILIFAGAGGHRYEVLSVDFHPSDIYRFASCGMDTTIKIWSMKEFWTYVEKSFTWTDDPSKFPTKFVQFPVFTASIHTNYVDCNRWFGDFILSKSVDNEILLWEPQLKENSPGEGASDVLLRYPVPMCDIWFIKFSCDLHLSSVAIGNQEGKVYVWDLKSCPPVLITKLSHNQSKSVIRQTAMSVDGSTILACCEDGTIWRWDVITK
B3: FLAG-dsRed-VRN5 (protein, UniProt Q9LHF5 1-602)
chain: T1 sequence
B4: FLAG-dsRed-VEL1 (protein, UniProt Q9SUM4 1-714)
chain: T2 sequence

Key:
[1] = target: T1, GFP-VRN5 (Arabidopsis thaliana); assay: co-IP; GFP-tagged VEL protein (wt, mutant or chimera) coexpressed with all four HA-tagged PRC2 subunits (VRN2, SWN, FIE, MSI1) in HEK293T; GFP-trap 90 min at 4°C; lysis buffer 20 mM Tris pH 7.4, 200 mM NaCl, 10% glycerol, 0.2% Triton X-100; anti-HA blot
[2] = target: T2, GFP-VEL1 (Arabidopsis thaliana); assay: as above
[3] = target: VIN3-GFP (Arabidopsis thaliana) (UniProt Q9FIE3); assay: as above
[4] = target: T3, GFP-tagged VRN2 (Arabidopsis); assay: co-IP; GFP-tagged VRN2 coexpressed with SWN, MSI1 and FIE, without or with VRN5, in HEK293T (Supplemental Fig. S1F,G)
GFP-VAL1 (Arabidopsis) = target: T4, GFP-VAL1 (Arabidopsis); assay: co-IP; GFP-VAL1 (wt or internal deletions) coexpressed with FLAG-dsRed-tagged VEL proteins (wt or mutant) in HEK293T; GFP-trap; anti-FLAG blot

Binder | binding [1] | binding [2] | binding [3] | binding [4] | binding (GFP-VAL1 (Arabidopsis))
B1 | binds | binds weakly | binds weakly |  | 
B2 | binds | binds weakly | binds weakly | binds | 
B3 |  |  |  |  | binds weakly
B4 |  |  |  |  | binds weakly
